Results as given in PubChem BioAssay AID504444 (National Center for Advancing Translational Sciences (NCATS), 2011).
About 7,500 (2.1%) of roughly 360,000 compounds were called active. The shares of active, inactive and inconclusive entries below differ from those in the screen. The call rests on the fitted dose curve; in most records, active means well fitted inhibition curve with a large enough effect; inconclusive means small, poorly fitted or top-dose-only effect, or effect the other way; inactive means flat fitted curve, though single readings scatter. Where the call is inconclusive, the potency comes from a doubtful curve fit.

assay: Nrf2 qHTS screen for inhibitors; settings: A549 ARE-Fluc reporter, luciferase luminescence, 18-24 h; activity change, negative = inhibition: at 46 µM (top of the series); further: nearly all actives have a fitted effect of over 60% in size
How it was run: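 Concentration-response testing used A549 ARE_Fluc cells at 5000 cells/well. Following an 18-24 h compound incubation, viability was read by fluorescence (Ex 405/Em 525) and luciferase output by luminescence.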
On the % scale 0 is the no-effect control and ±100 the full control effect; potency means the concentration at half of the fitted maximal effect.

Question: For `Cc1cc(C)cc(NC(=O)c2ccc(NC(=O)c3ccco3)cc2)c1`, which Potency is on record?
Answer: inconclusive: 11.6 µM [falling, partial curve]

Question: Which Potency does the source give for `O=C(NCC(c1ccco1)N1CCCC1)c1ccc(Cl)c(S(=O)(=O)N2CCc3ccccc32)c1` (stereo unspecified) here?
Answer: active: 1.3 µM

Question: Which Potency does the source give for `CC1CCN(S(=O)(=O)c2ccc3c(c2)N(CC(=O)NC(C)C)C(=O)CS3)CC1` here?
Answer: inactive

Question: For `c1ccc2[nH]c(-c3ccnc4ccccc34)nc2c1`, which Potency is on record?
Answer: inconclusive: 20.6 µM [activator, single point]

Question: For `COc1ccc(C(=O)Nc2ccccc2C(=O)O)cc1Cl`, which Potency is on record?
Answer: inconclusive: 3.26 µM [activator, full curve, poor fit]

Question: Which Potency does the source give for `Cc1ccc(OC(=O)c2cc(-c3ccc4c(c3)OCCO4)on2)c(C)c1` here?
Answer: inconclusive: 16.4 µM [falling, single point]

Question: For `CN(C)/C=C/C(=O)c1ccc(S(=O)(=O)c2ccccc2)cc1`, which Potency is on record?
Answer: inconclusive: 16.4 µM [falling, partial curve, poor fit]

Question: For `Cc1ccccc1OCCN1C(=O)c2ccccc2C1=O`, which Potency is on record?
Answer: inconclusive: 9.2 µM [activator, partial curve]

Question: Which Potency does the source give for `O=S(=O)(c1ccc(F)cc1)N1CCN=C1SCc1cccc(F)c1` here?
Answer: inconclusive: 32.6 µM [falling, partial curve, poor fit]

Question: With `Cc1cccc(C(=O)NC(C(=O)Nc2ccc(S(=O)(=O)Nc3nccs3)cc2)C(C)C)c1` (stereo unspecified) as the molecule, how does the Potency read?
Answer: inactive

Question: With `Cc1ccc(C(=O)Nc2ccc(Cl)c(-c3nc4ncccc4o3)c2)c(C)c1` as the molecule, how does the Potency read?
Answer: inconclusive: 29.1 µM [falling, single point]

Question: With `Cc1ccccc1OCc1ccc(-c2nc(C#N)c(NCCCN(C)C)o2)o1` as the molecule, how does the Potency read?
Answer: inactive

Question: Which Potency does the source give for `COc1ccccc1C(=O)Nc1ccc(-c2nnn(CC(=O)N3CCOCC3)n2)cc1` here?
Answer: inconclusive: 4.61 µM [falling, partial curve]

Question: Which Potency does the source give for `CC(C)CNC(=O)CSc1ccc(Cl)cc1` here?
Answer: inconclusive: 18.4 µM [activator, single point]

Question: For `CCOc1ccc(N2C(=O)CN(c3cccc4ccccc34)C2=S)cc1`, which Potency is on record?
Answer: inconclusive: 20.6 µM [activator, single point]

Question: For `COc1ccnc(Oc2ccc(C)cc2)c1C#N`, which Potency is on record?
Answer: inconclusive: 14.6 µM [activator, partial curve]

Question: With `O=C(/C=C/c1ccc(OCCCF)cc1)Nc1ccnc(-c2cccnc2)n1` as the molecule, how does the Potency read?
Answer: inconclusive: 20.6 µM [falling, partial curve]

Question: With `O=C(Cc1cccs1)Nc1nnc(-c2ccncc2)s1` as the molecule, how does the Potency read?
Answer: inactive

Question: With `COc1cccc(-c2nc(-c3ccc(-c4ccccc4)nc3OC)no2)c1` as the molecule, how does the Potency read?
Answer: inconclusive: 23.1 µM [activator, single point]

Question: Which Potency does the source give for `COc1ccc(NS(=O)(=O)c2cccc(NC(=O)c3ccccn3)c2)cc1` here?
Answer: inconclusive: 23.1 µM [falling, partial curve, poor fit]

Question: Which Potency does the source give for `CCOCCCNC(=S)N1CCCN(c2nc3cc(C)cc(C)c3cc2C#N)CC1` here?
Answer: inconclusive: 18.4 µM [falling, single point]

Question: With `COc1cc(/C=C/c2cc(C(F)(F)F)[nH]c(=O)n2)cc(OC)c1OC` as the molecule, how does the Potency read?
Answer: inconclusive: 32.6 µM [falling, single point]

Question: Which Potency does the source give for `CCCCCn1c(CN2CCN(c3cccc(Cl)c3)CC2)nc2c1c(=O)[nH]c(=O)n2C` here?
Answer: inconclusive: 16.4 µM [falling, partial curve, poor fit]

Question: With `CCN(CC(=O)Nc1ccc(NC(C)=O)cc1)CC(=O)Nc1ccc(Cl)c(Cl)c1` as the molecule, how does the Potency read?
Answer: inactive

Question: For `CCOC(=O)c1c(C)[nH]c(N=Nc2ccccc2C)c1C`, which Potency is on record?
Answer: inconclusive: 9.2 µM [activator, partial curve, poor fit]

Question: Which Potency does the source give for `COc1ccccc1CNc1ccc(-c2nc(C(C)C)no2)cc1[N+](=O)[O-]` here?
Answer: inconclusive: 32.6 µM [falling, single point]

Question: Which Potency does the source give for `CCN(CC)CCCNC(=O)c1cc2nc3c(c(C(F)(F)F)n2n1)CCc1ccccc1-3` here?
Answer: inconclusive: 2.91 µM [activator, single point]

Question: For `Cc1ccc(OCc2ccc(C(=O)NCc3cccnc3)cc2)cc1C`, which Potency is on record?
Answer: active: 23.1 µM

Question: With `CCOc1ccc(CNC(=O)c2cc3oc4ccccc4c3n2C)cc1` as the molecule, how does the Potency read?
Answer: inconclusive: 4.11 µM [activator, full curve]

Question: For `O=C(N/N=C/c1ccccn1)c1ccc(Cl)cc1`, which Potency is on record?
Answer: inconclusive: 16.4 µM [falling, partial curve, poor fit]

Question: With `Cc1cc(C)c2c(CC(=O)N(Cc3ccc(N(C)C)cc3)Cc3ccco3)coc2c1` as the molecule, how does the Potency read?
Answer: inconclusive: 23.1 µM [falling, single point]

Question: With `CCN(CCNC(=O)CN1CCN(Cc2ccc(Cl)cc2)C1=O)c1ccccc1` as the molecule, how does the Potency read?
Answer: inconclusive: 23.1 µM [falling, partial curve]

Question: For `O=C(CSc1nc2c(c(=O)[nH]1)CCC2)Nc1ccccc1F`, which Potency is on record?
Answer: inactive

Question: For `CN(C)c1ccc(CNc2nc(-c3ccco3)nn2S(=O)(=O)c2ccc3ccccc3c2)cc1`, which Potency is on record?
Answer: inactive

Question: With `S=c1[nH]nc(CSCCOc2ccc(Cl)cc2Cl)o1` as the molecule, how does the Potency read?
Answer: inconclusive: 23.1 µM [activator, partial curve, poor fit]

Question: For `COc1ccc(-c2cn(-c3ccccc3)c3[n+]2CCS3)cc1`, which Potency is on record?
Answer: active: 2.59 µM

Question: For `O=C(c1cc2ccccc2o1)N1CCN(S(=O)(=O)/C=C/c2ccccc2)CC1`, which Potency is on record?
Answer: inconclusive: 16.4 µM [falling, single point]

Question: With `NC1=NC[C@H](Cc2ccc(O)cc2)N1CCCCC1CCCCC1` as the molecule, how does the Potency read?
Answer: inconclusive: 29.1 µM [falling, single point]

Question: For `CN(CC(=O)Nc1ccccc1Br)C(=O)c1cc([N+](=O)[O-])ccc1N1CCOCC1`, which Potency is on record?
Answer: inactive

Question: For `CC(=O)Nc1ccc(C)c(NC(=S)Nc2ccc(F)cc2)c1`, which Potency is on record?
Answer: inconclusive: 9.2 µM [falling, partial curve, poor fit]

Question: Which Potency does the source give for `COc1ccccc1OCCn1cc(C(=O)c2cccs2)c2ccccc21` here?
Answer: inconclusive: 2.06 µM [falling, full curve, poor fit]

Question: With `O=C(CCc1ccc(S(=O)(=O)NCc2ccccc2)cc1)NCc1cccnc1` as the molecule, how does the Potency read?
Answer: inconclusive: 25.9 µM [falling, partial curve, poor fit]

Question: With `COc1ccc(Cl)cc1NC(=O)Cn1ccn(Cc2ccc(C)cc2)c(=O)c1=O` as the molecule, how does the Potency read?
Answer: inconclusive: 20.6 µM [activator, partial curve]

Question: Which activity change, negative = inhibition does the source give for `O=C(c1cc2c(=O)oc3ccccc3c2s1)N1CCN(c2cccc(Cl)c2)CC1` here?
Answer: inactive: -4.27% [at 9.27 µM]

Question: Which Potency does the source give for `Cc1ccccc1COc1cccc(/C=N/NC(=O)c2nnn(-c3nonc3N)c2C)c1` here?
Answer: inconclusive: 29.1 µM [falling, single point]

Question: For `Cc1cc(/C=C(\C#N)C(=O)Nc2ccc(Cl)cc2)c(C)n1-c1ccc(N2CCOCC2)c([N+](=O)[O-])c1`, which Potency is on record?
Answer: active: 5.17 µM

Question: Which Potency does the source give for `CCOC(=O)N1CCN(C(=O)CN(c2cccc(Cl)c2C)S(=O)(=O)c2ccc(C)cc2)CC1` here?
Answer: inactive

Question: With `CCCSc1ccc([C@H]2N[C@@](C)(C(=O)OC)[C@H]3C(=O)N(C)C(=O)[C@@H]23)cc1OC` as the molecule, how does the Potency read?
Answer: inconclusive: 25.9 µM [falling, single point]

Question: For `O=C(CSc1nnc(-c2cnccn2)n1Cc1ccco1)c1ccc(Cl)cc1`, which Potency is on record?
Answer: inactive

Question: With `Cc1nn(C)cc1/C=N/NC(=O)c1sc2ccccc2c1Cl` as the molecule, how does the Potency read?
Answer: inconclusive: 20.6 µM [falling, partial curve, poor fit]

Question: For `C=C1CCN(C(CC(C)C)C(=O)NCc2ccc(Cl)cc2)S(=O)(=O)c2ccccc21` (stereo unspecified), which Potency is on record?
Answer: inactive

Question: For `O=C(c1ccc(S(=O)(=O)NCC2CCCO2)cc1)N1CCN(c2cccc(Cl)c2)CC1` (stereo unspecified), which Potency is on record?
Answer: active: 13 µM

Question: Which Potency does the source give for `COc1ccc2c(c1)CCc1c(C(=O)NCC(C)C)noc1-2` here?
Answer: inconclusive: 8.2 µM [activator, partial curve]

Question: Which Potency does the source give for `C[C@@]12C(=O)Nc3ccccc3C(=O)N1[C@H]1c3cc(Br)ccc3OC[C@@H]1[C@@H]2c1ccccc1` here?
Answer: inconclusive: 10.3 µM [falling, partial curve]

Question: Which Potency does the source give for `COc1ccccc1-c1nc(-c2ccc(Br)o2)no1` here?
Answer: inconclusive: 8.2 µM [activator, partial curve]

Question: Which Potency does the source give for `CCOC(=O)CC1COc2ccccc2N1C(=O)c1ccc(C)cc1` (stereo unspecified) here?
Answer: inactive

Question: Which Potency does the source give for `Cc1cccc(-n2c(SCC(N)=O)nc3c(oc4ccccc43)c2=O)c1` here?
Answer: inactive

Question: With `CC(=O)Nc1cccc(C(=O)OC(C)C(=O)N2CCc3ccccc32)c1` (stereo unspecified) as the molecule, how does the Potency read?
Answer: inconclusive: 1.03 µM [falling, partial curve, poor fit]

Question: Which Potency does the source give for `CN(c1ccccc1)S(=O)(=O)c1ccc(C(=O)NNC(=O)c2ccccc2)cc1` here?
Answer: inactive

Question: With `Cc1cc(O)c2c(C)c(CC(=O)N3CCN(C(=O)C4COc5ccccc5O4)CC3)c(=O)oc2c1` (stereo unspecified) as the molecule, how does the Potency read?
Answer: inconclusive: 10.3 µM [falling, partial curve, poor fit]

Question: With `O=C(CN1C(=O)C(=O)c2ccccc21)c1ccccc1` as the molecule, how does the Potency read?
Answer: inconclusive: 0.0029 µM [falling, partial curve, poor fit]

Question: For `CCOc1ccc(C(=O)N/N=C(\c2ccccc2)c2ccccn2)cc1`, which Potency is on record?
Answer: active: 20.6 µM

Question: For `O=S(=O)(Cc1ccc(Cl)cc1)N1CCCC1`, which Potency is on record?
Answer: inconclusive: 1.16 µM [falling, full curve, poor fit]

Question: Which Potency does the source give for `COc1ccc(/C=C/C(=O)Nc2ccccc2C)cc1S(=O)(=O)N1CCOCC1` here?
Answer: inconclusive: 18.4 µM [falling, single point]

Question: Which Potency does the source give for `CCc1ccc(OCC(=O)OCC(=O)NCCNC(=O)COC(=O)COc2ccc(CC)cc2)cc1` here?
Answer: inconclusive: 0.0651 µM [falling, partial curve, poor fit]

Question: Which Potency does the source give for `CC(SC1=NCCN1S(=O)(=O)c1ccccc1)c1ccccc1` (stereo unspecified) here?
Answer: inconclusive: 20.6 µM [falling, single point]
